Measured values as given in PMC9785812 (Pharmaceutics, 2022).

Assay: Dosimetry (MIRD formalism) in CA20948 xenograft mice
Assay type: in vivo, mouse

Compound: C[C@@H](O)[C@H](NC(=O)[C@@H]1CSSC[C@H](NC(=O)[C@@H](Cc2ccccc2)NC(=O)CN2CCN(CC(=O)O)CCN(CC(=O)O)CCN(CC(=O)O)CC2)C(=O)N[C@@H](Cc2ccc(O)cc2)C(=O)N[C@H](Cc2c[nH]c3ccccc23)C(=O)N[C@@H](CCCCN)C(=O)N[C@@H]([C@@H](C)O)C(=O)N1)C(=O)O [[^153Sm]Sm-DOTA-TATE, metal not drawn]
- absorbed dose, kidneys (kidney m = 0.26 g, MIRD, S values by MCNP6.2): 3.35 mGy/MBq·s
- dose to the kidneys (mouse injected with 2 MBq): 6.7 mGy/s
- dose to the tumor (mouse injected with 2 MBq): 6 mGy/s
- absorbed dose, tumor (spherical tumor, m = 0.42 g, MIRD, S values by MCNP6.2): 30.7 mGy/MBq·s
